Reference: patent publication US9540654B2, “Synthetic brassica-derived chloroplast transit peptides” (Dow AgroSciences LLC, priority 2012, dated 2017)

Legend:
[1] = tested on: DGT-28 protein; assay: DGT-28 protein expression in corn by standard ELISA; parameters: species or system Zea mays
[2] = tested on: DGT-28 protein; assay: DGT-28 protein in tobacco by standard ELISA

B1: DGT-28: EPSP synthase (GENBANK ZP_06917240.1) from Streptomyces sviceus ATCC29083; glyphosate tolerance gene and protein (protein)
chain: MRGMPALSLPGSKSITARALFLAAAADGVTTLVRPLRSDDTEGFAEGLVRLGYRVGRTPDTWQVDGRPQGPAVAEADVYCRDGATTARFLPTLAAAGHGTYRFDASPQMRRRPLLPLSRALRDLGVDLRHEEAEGHHPLTVRAAGVEGGEVTLDAGQSSQYLTALLLLGPLTRQGLRIRVTDLVSAPYVEITLAMMRAFGVEVAREGDVFVVPPGGYRATTYAIEPDASTASYFFAAAALTPGAEVTVPGLGTGALQGDLGFVDVLRRMGAEVSVGADATTVRGTGELRGLTANMRDISDTMPTLAAIAPFASAPVRIEDVANTRVKECDRLEACAENLRRLGVRVATGPDWIEIHPGPATGAQVTSYGDHRIVMSFAVTGLRVPGISFDDPGCVRKTFPGFHEAFAELRRGIGS
- mean range of DGT-28 protein (ELISA) ([1]; T0 corn, across the constructs tested): 12.6-22.5 ng/cm^2
- range of mean DGT-28 protein expression (ELISA) ([1]; homozygous corn, single copy events tolerant to glyphosate): 27.5-65.8 ng/cm^2
- DGT-28 mean protein expression (ELISA) ([2]; T2 tobacco, simple (1-2 copy) lines across constructs): 72.8-114.5 ng/cm^2
- DGT-28 protein detection (ELISA) ([2]; all PCR positive T0 tobacco plants): detected in all PCR positive plants
